Literature values as cited in patent US20090178587A9, “Control of biofilms in industrial water systems” (priority 2001, published 2009).
Some results were stated once for a whole list of compounds, not compound by compound.

System: planktonic organisms
Details: 0.5 ppm total residual as Cl2; after 1 hour; cited from earlier work

SMILES: CC1(C)C(=O)N(Cl)C(=O)N1Br [BCDMH, 1-bromo-3-chloro-5,5-dimethylhydantoin]
- log reductions in planktonic organisms: > 4 log
